From the supplement of paper PMC4604168 (melanoma cell lines)
Some of the results follow. Single values are uncertain, as repeats are few or missing.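 The apoptosis fraction was the count of cleaved-PARP antibody-stained nuclei relative to all DNA-stained nuclei, imaged in 1,536-well plates. Screening doses were set so most cells survived, and baseline and induced cleaved-PARP levels vary greatly across cell lines.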

tested on: CBRC016 (line from a melanoma biopsy); assay: cleaved PARP positive nuclei fraction relative to DMSO control; melanoma cells; higher = more apoptosis; conditions: library dose: low library concentration; 72 h

Row | SMILES | cleaved PARP positive nuclei fraction
1 | O=C(/C=C/c1cccnc1)NCCCCC1CCN(C(=O)c2ccccc2)CC1 + CC1(C)NC(=O)N(c2ccc([N+](=O)[O-])c(C(F)(F)F)c2)C1=O [nilutamide] (first compound 0.01 µM, partner dose 1 µM) | 478%
2 | Cc1ccc(Nc2nccc(N(C)c3ccc4c(C)n(C)nc4c3)n2)cc1S(N)(=O)=O [Pazopanib] + C[C@@H]1CCN(C(=O)CC#N)C[C@@H]1N(C)c1ncnc2[nH]ccc12 [CP690550] (first compound 0.4 µM, partner dose 1 µM) | 167%
3 | O=C(Nc1cc(C(F)(F)F)cc(C(F)(F)F)c1)c1cc(Cl)ccc1O + Cc1cc(N2CCOCC2)cc2[nH]c(-c3c(NC[C@@H](O)c4cccc(Cl)c4)cc[nH]c3=O)nc12 [BMS536924] (first compound 0.016 µM, partner dose 0.2 µM) | 86.3%
4 | Cc1cn(-c2cc(NC(=O)c3ccc(C)c(Nc4nccc(-c5cccnc5)n4)c3)cc(C(F)(F)F)c2)cn1 [nilotinib] + CO[C@@H]1[C@H](N(C)C(=O)c2ccccc2)C[C@H]2O[C@]1(C)n1c3ccccc3c3c4c(c5c6ccccc6n2c5c31)C(=O)NC4 [Midostaurin] (first compound 0.2 µM, partner dose 0.08 µM) | 91.5%
5 | O=C(Nc1cc(C(F)(F)F)cc(C(F)(F)F)c1)c1cc(Cl)ccc1O + NC(=O)Nc1cc(-c2cccc(F)c2)sc1C(=O)N[C@H]1CCCNC1 [AZD7762] (first compound 0.016 µM, partner dose 0.02 µM) | 121%
6 | Cc1ccc(Nc2nccc(N(C)c3ccc4c(C)n(C)nc4c3)n2)cc1S(N)(=O)=O [Pazopanib] + COc1cc2c(Oc3ccc4[nH]c(C)cc4c3F)ncnc2cc1OCCCN1CCCC1 [cediranib] (first compound 0.4 µM, partner dose 0.4 µM) | 127%
7 | Cc1cn(-c2cc(NC(=O)c3ccc(C)c(Nc4nccc(-c5cccnc5)n4)c3)cc(C(F)(F)F)c2)cn1 [nilotinib] + Cc1cc(N2CCOCC2)cc2[nH]c(-c3c(NC[C@@H](O)c4cccc(Cl)c4)cc[nH]c3=O)nc12 [BMS536924] (first compound 0.2 µM, partner dose 0.2 µM) | 105%
8 | O=c1[nH]nc(Sc2ncc([N+](=O)[O-])s2)n1-c1ccc2c(c1)OCCO2 + O=C(Nc1cccc(Cl)c1)Nc1ncc(CCNc2ncnc3ccsc23)s1 [SNS314] (first compound 0.2 µM, partner dose 0.0008 µM) | 135%
9 | Cc1ccc(Nc2nccc(N(C)c3ccc4c(C)n(C)nc4c3)n2)cc1S(N)(=O)=O [Pazopanib] + Cc1cc(N2CCOCC2)cc2[nH]c(-c3c(NC[C@@H](O)c4cccc(Cl)c4)cc[nH]c3=O)nc12 [BMS536924] (first compound 0.4 µM, partner dose 0.2 µM) | 66%
10 | COc1cc([C@@H]2c3cc4c(cc3[C@@H](O[C@@H]3O[C@@H]5CO[C@@H](C)O[C@H]5[C@H](O)[C@H]3O)[C@H]3COC(=O)[C@H]23)OCO4)cc(OC)c1O [etoposide] + C[C@@H]1CCN(C(=O)CC#N)C[C@@H]1N(C)c1ncnc2[nH]ccc12 [CP690550] (first compound 0.02 µM, partner dose 1 µM) | 225%
11 | Cc1cc(Nc2cc(N3CCN(C)CC3)nc(Sc3ccc(NC(=O)C4CC4)cc3)n2)n[nH]1 [Tozasertib] + CN(C)S(=O)(=O)c1ccc2c(c1)/C(=C/c1cc3c([nH]1)CCCC3)C(=O)N2 [SU6656] (first compound 0.006 µM, partner dose 0.4 µM) | 111%
12 | O=C(/C=C/c1cccnc1)NCCCCC1CCN(C(=O)c2ccccc2)CC1 + CN(NC(=O)CC(=O)NN(C)C(=S)c1ccccc1)C(=S)c1ccccc1 [STA4783] (first compound 0.01 µM, partner dose 0.006 µM) | 487%
13 | O=C(Nc1cc(C(F)(F)F)cc(C(F)(F)F)c1)c1cc(Cl)ccc1O + CN(NC(=O)CC(=O)NN(C)C(=S)c1ccccc1)C(=S)c1ccccc1 [STA4783] (first compound 0.016 µM, partner dose 0.006 µM) | 236%
14 | COc1cc([C@@H]2c3cc4c(cc3[C@@H](O[C@@H]3O[C@@H]5CO[C@@H](C)O[C@H]5[C@H](O)[C@H]3O)[C@H]3COC(=O)[C@H]23)OCO4)cc(OC)c1O [etoposide] + NC(=O)Nc1cc(-c2cccc(F)c2)sc1C(=O)N[C@H]1CCCNC1 [AZD7762] (first compound 0.02 µM, partner dose 0.02 µM) | 124%

Another view of part of the listing above:

| Row | SMILES | cleaved PARP positive nuclei fraction |
| --- | --- | --- |
| 1 | O=C(/C=C/c1cccnc1)NCCCCC1CCN(C(=O)c2ccccc2)CC1 + CC1(C)NC(=O)N(c2ccc([N+](=O)[O-])c(C(F)(F)F)c2)C1=O [nilutamide] (first compound 0.01 µM, partner dose 1 µM) | 478% |
| 6 | Cc1ccc(Nc2nccc(N(C)c3ccc4c(C)n(C)nc4c3)n2)cc1S(N)(=O)=O [Pazopanib] + COc1cc2c(Oc3ccc4[nH]c(C)cc4c3F)ncnc2cc1OCCCN1CCCC1 [cediranib] (first compound 0.4 µM, partner dose 0.4 µM) | 127% |
